The results in this text go back to doi:10.1101/2020.06.16.152934.

Protein sequences, listed by entry. Tags and fused reporters are not part of them.
UniProt P25694: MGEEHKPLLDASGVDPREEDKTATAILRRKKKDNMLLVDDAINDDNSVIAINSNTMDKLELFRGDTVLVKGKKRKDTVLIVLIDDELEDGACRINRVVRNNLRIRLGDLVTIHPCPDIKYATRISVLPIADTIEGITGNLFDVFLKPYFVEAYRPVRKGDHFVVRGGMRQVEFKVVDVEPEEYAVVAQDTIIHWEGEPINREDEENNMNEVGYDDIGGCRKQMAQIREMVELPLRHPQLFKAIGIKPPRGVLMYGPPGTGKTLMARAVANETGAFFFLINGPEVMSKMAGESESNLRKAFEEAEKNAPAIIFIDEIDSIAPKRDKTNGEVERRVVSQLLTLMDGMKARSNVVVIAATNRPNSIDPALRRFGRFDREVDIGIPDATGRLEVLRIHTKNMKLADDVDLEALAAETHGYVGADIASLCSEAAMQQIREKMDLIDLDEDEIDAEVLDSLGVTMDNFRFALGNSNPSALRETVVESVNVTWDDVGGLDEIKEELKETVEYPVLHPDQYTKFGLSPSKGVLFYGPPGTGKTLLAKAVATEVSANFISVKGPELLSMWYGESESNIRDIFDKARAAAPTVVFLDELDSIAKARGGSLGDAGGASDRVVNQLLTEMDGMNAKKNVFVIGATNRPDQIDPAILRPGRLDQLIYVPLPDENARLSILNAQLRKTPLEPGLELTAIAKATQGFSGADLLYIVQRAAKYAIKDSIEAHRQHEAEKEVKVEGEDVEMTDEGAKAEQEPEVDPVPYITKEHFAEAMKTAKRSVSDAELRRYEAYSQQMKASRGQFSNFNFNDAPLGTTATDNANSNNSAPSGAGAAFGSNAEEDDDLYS

Results are given in words; binding and its absence hold for the method and conditions named. Binding seen in cells or lysates may run through a third protein. Some entries that bind do so weakly or less than the wild type. For part of these data: Where a sequence is shown, tags or fusion partners need not be part of it.

Experiment in all cases: co-IP
Assay [1] concerns the target T1, Hsh155-TAP (yeast (s288c background)) (UniProt P49955).
T1 sequence: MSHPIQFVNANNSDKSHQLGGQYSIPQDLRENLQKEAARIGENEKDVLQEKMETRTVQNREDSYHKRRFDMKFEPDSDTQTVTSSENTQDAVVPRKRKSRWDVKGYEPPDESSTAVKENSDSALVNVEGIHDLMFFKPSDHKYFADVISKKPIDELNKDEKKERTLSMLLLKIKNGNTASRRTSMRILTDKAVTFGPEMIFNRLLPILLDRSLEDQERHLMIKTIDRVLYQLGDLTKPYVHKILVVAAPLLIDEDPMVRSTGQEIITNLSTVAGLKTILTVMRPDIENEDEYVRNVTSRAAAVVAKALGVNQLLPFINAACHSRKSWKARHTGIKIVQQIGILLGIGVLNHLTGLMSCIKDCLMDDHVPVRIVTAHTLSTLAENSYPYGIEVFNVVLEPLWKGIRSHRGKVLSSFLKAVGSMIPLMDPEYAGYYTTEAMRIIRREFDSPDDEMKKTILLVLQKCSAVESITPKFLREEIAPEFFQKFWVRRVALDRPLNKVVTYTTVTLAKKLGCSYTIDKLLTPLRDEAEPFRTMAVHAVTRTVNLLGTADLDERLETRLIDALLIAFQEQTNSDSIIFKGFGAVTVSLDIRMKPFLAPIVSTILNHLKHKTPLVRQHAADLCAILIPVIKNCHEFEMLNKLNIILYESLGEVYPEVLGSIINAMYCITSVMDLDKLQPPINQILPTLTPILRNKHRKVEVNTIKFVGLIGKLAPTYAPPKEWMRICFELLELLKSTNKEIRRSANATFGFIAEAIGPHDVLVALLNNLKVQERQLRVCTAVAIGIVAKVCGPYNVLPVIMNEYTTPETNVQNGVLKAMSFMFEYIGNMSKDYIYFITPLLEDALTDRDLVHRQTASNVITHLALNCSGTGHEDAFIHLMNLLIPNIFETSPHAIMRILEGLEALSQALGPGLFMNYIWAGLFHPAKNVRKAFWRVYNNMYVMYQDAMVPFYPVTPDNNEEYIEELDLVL

Assay [2] concerns the target T2, TAP tagged Cus1 (yeast (s288c background)) (UniProt Q02554).
T2 sequence: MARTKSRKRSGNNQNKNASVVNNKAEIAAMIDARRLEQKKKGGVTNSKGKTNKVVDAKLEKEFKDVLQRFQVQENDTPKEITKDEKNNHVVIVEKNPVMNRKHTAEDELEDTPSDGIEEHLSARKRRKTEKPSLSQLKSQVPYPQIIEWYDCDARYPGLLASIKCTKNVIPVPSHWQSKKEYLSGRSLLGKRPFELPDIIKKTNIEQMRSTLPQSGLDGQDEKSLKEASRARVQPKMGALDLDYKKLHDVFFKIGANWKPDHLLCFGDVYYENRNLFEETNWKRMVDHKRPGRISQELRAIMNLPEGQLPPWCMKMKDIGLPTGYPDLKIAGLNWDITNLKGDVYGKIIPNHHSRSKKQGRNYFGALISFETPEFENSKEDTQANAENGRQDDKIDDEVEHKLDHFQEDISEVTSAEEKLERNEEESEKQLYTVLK

Assay [3] addresses Cdc48-TAP (yeast (s288c background)) (UniProt P25694).

Regarding Cdc48-GFP (from UniProt P25694 1-835), the binding entry in assay [1] was “binds”.

B1: Hsh155-GFP (protein, UniProt P49955 1-971)
chain: MSHPIQFVNANNSDKSHQLGGQYSIPQDLRENLQKEAARIGENEKDVLQEKMETRTVQNREDSYHKRRFDMKFEPDSDTQTVTSSENTQDAVVPRKRKSRWDVKGYEPPDESSTAVKENSDSALVNVEGIHDLMFFKPSDHKYFADVISKKPIDELNKDEKKERTLSMLLLKIKNGNTASRRTSMRILTDKAVTFGPEMIFNRLLPILLDRSLEDQERHLMIKTIDRVLYQLGDLTKPYVHKILVVAAPLLIDEDPMVRSTGQEIITNLSTVAGLKTILTVMRPDIENEDEYVRNVTSRAAAVVAKALGVNQLLPFINAACHSRKSWKARHTGIKIVQQIGILLGIGVLNHLTGLMSCIKDCLMDDHVPVRIVTAHTLSTLAENSYPYGIEVFNVVLEPLWKGIRSHRGKVLSSFLKAVGSMIPLMDPEYAGYYTTEAMRIIRREFDSPDDEMKKTILLVLQKCSAVESITPKFLREEIAPEFFQKFWVRRVALDRPLNKVVTYTTVTLAKKLGCSYTIDKLLTPLRDEAEPFRTMAVHAVTRTVNLLGTADLDERLETRLIDALLIAFQEQTNSDSIIFKGFGAVTVSLDIRMKPFLAPIVSTILNHLKHKTPLVRQHAADLCAILIPVIKNCHEFEMLNKLNIILYESLGEVYPEVLGSIINAMYCITSVMDLDKLQPPINQILPTLTPILRNKHRKVEVNTIKFVGLIGKLAPTYAPPKEWMRICFELLELLKSTNKEIRRSANATFGFIAEAIGPHDVLVALLNNLKVQERQLRVCTAVAIGIVAKVCGPYNVLPVIMNEYTTPETNVQNGVLKAMSFMFEYIGNMSKDYIYFITPLLEDALTDRDLVHRQTASNVITHLALNCSGTGHEDAFIHLMNLLIPNIFETSPHAIMRILEGLEALSQALGPGLFMNYIWAGLFHPAKNVRKAFWRVYNNMYVMYQDAMVPFYPVTPDNNEEYIEELDLVL
Consider B1, for which the binding entry in assay [2] and in assay [3] was “binds” in each case.
